Experimental data: PubChem BioAssay AID720505 (Drosophila RNAi Screening Center, 2013)
Aim: 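Fly regulators or components of the CRAC channel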 (primary screen). Cells: Drosophila S2R+ cells. Knock-down reagent: long dsRNA against Drosophila genes. Treatment: thapsigargin (2 µM) in calcium-free buffer to empty internal stores, then 2 mM calcium added back. Measured: 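Fluo-4 signal in 384-well plates read on a FLIPR after thapsigargin (2 µM, calcium-free) store depletion and 2 mM calcium add-back; unnormalised mean endpoint per well; screen run twice, selected wells retested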. Scale: calcium signal and retest calcium signal: higher = more calcium entry after store depletion. Active means: 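About 1500 genes called as lowering calcium entry, by varying amounts, judged against per-plate control wells with STIM1 as positive and Rho1 as negative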. Calls: active = called as lowering calcium entry; inactive = not called.
The deposit covers about 20,000 reagents; below is an unselected part of those with a known target gene and a result. Of all reagents, about 2,100 (10%) are marked active. 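Raw plate signals without normalisation; calls rest on control-based scores that were not deposited; replicate 2 separates called from uncalled poorly.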 Not stated in the record: the amount of reagent, the time to read-out.

Which result is listed for Vha36-3 (GeneID 31235) [DRSC18615]?
calcium signal, replicate 1: 69; calcium signal, replicate 2: 130; outcome: inactive

For CG8777 (GeneID 35921) [DRSC07263], what was measured?
calcium signal, replicate 1: 162; calcium signal, replicate 2: 131; outcome: inactive

For CG10064 (GeneID 38761) [DRSC09689], what does the deposit list?
calcium signal, replicate 1: 88.5; calcium signal, replicate 2: 80.5; outcome: inactive

What did the screen give for CG9192 (GeneID 38134) [DRSC08639]?
calcium signal, replicate 1: 114; calcium signal, replicate 2: 122; outcome: inactive

With CG17028 (GeneID 39741) [DRSC10239], what does the deposit list?
calcium signal, replicate 1: 75; calcium signal, replicate 2: 128; outcome: inactive

Which result is listed for CG15283 (GeneID 50454) [DRSC01980]?
calcium signal, replicate 1: 96; calcium signal, replicate 2: 140; outcome: inactive

How did the screen score phtm (GeneID 32857) [DRSC20237]?
calcium signal, replicate 1: 39; calcium signal, replicate 2: 96.6; outcome: active

With CG5850 (GeneID 34327) [DRSC02905], what does the deposit list?
calcium signal, replicate 1: 105; calcium signal, replicate 2: 97.1; outcome: inactive

With Rcd1 (GeneID 36560) [DRSC07116], how do the results read?
calcium signal, replicate 1: 151; calcium signal, replicate 2: 164; outcome: inactive

With Akt (GeneID 41957) [DRSC14108], what was measured?
calcium signal, replicate 1: 148; calcium signal, replicate 2: 186; outcome: inactive

For meigo (GeneID 42510) [DRSC15877], how do the results read?
calcium signal, replicate 1: 96; calcium signal, replicate 2: 186; outcome: inactive

For CG33673 (GeneID 3772423) [DRSC00084], what does the deposit list?
calcium signal, replicate 1: 66.5; calcium signal, replicate 2: 155; outcome: inactive

For Nha1 (GeneID 33961) [DRSC02109], what does the deposit list?
calcium signal, replicate 1: 88.5; calcium signal, replicate 2: 260; outcome: inactive

For plh (GeneID 40615) [DRSC12294], what was measured?
calcium signal, replicate 1: 108; calcium signal, replicate 2: 134; outcome: inactive

For Grx1t (GeneID 37483) [DRSC04530], what does the deposit list?
calcium signal, replicate 1: 68.6; calcium signal, replicate 2: 115; outcome: inactive

Active calls, of those listed so far:
phtm (GeneID 32857) [DRSC20237] — calcium signal, replicate 1: 39; calcium signal, replicate 2: 96.6; outcome: active

Additional entries follow:
With CG8839 (GeneID 36340) [DRSC07285], what does the deposit list?
calcium signal, replicate 1: 198; calcium signal, replicate 2: 183; outcome: inactive

What did the screen give for eEF5 (GeneID 37846) [DRSC04681]?
calcium signal, replicate 1: 66.5; calcium signal, replicate 2: 156; outcome: active

For Mat1 (GeneID 36130) [DRSC07465], how do the results read?
calcium signal, replicate 1: 136; calcium signal, replicate 2: 160; outcome: inactive

Which result is listed for Tsp29Fa (GeneID 34211) [DRSC03232]?
calcium signal, replicate 1: 141; calcium signal, replicate 2: 146; outcome: inactive

What is on record for GABA-B-R2 (GeneID 42561) [DRSC14134]?
calcium signal, replicate 1: 132; calcium signal, replicate 2: 150; retest calcium signal, replicate 1: 91.8; retest calcium signal, replicate 2: 105; outcome: inactive

For CG9701 (GeneID 39872) [DRSC11093], what was measured?
calcium signal, replicate 1: 137; calcium signal, replicate 2: 107; outcome: inactive

What did the screen give for l(2)k05819 (GeneID 33644) [DRSC00826]?
calcium signal, replicate 1: 140; calcium signal, replicate 2: 319; outcome: inactive

How did the screen score CG10600 (GeneID 35142) [DRSC02074]?
calcium signal, replicate 1: 72.4; calcium signal, replicate 2: 90.5; outcome: inactive

How did the screen score mbo (GeneID 41562) [DRSC16123]?
calcium signal, replicate 1: 90.5; calcium signal, replicate 2: 112; outcome: inactive

What did the screen give for CG4390 (GeneID 42396) [DRSC15572]?
calcium signal, replicate 1: 158; calcium signal, replicate 2: 251; outcome: inactive

For grau (GeneID 45871) [DRSC04691], what does the deposit list?
calcium signal, replicate 1: 182; calcium signal, replicate 2: 96.7; outcome: inactive

For CG5104 (GeneID 40280) [DRSC11765], what was measured?
calcium signal, replicate 1: 116; calcium signal, replicate 2: 172; outcome: inactive

For CG15362 (GeneID 33371) [DRSC00392], what does the deposit list?
calcium signal, replicate 1: 101; calcium signal, replicate 2: 127; outcome: inactive
